Some of these results come from one statement about several compounds together.
Legend:
Format in all cases: biochemical
Settings in all cases: data not shown
[1] = biological target: T1, human liver cathepsin B (cat-B) (Homo sapiens, UniProt P07858); test: Specificity assay, human liver cathepsin B
T1 construct: Human liver cathepsin B #219364 lot B14649; purchased Calbiochem #219364

[2] = biological target: T2, human leukocyte elastase (HLE) (Homo sapiens, UniProt P08246); test: Specificity assay, human leukocyte elastase
T2 construct: Human neutrophil elastase #324681 lot B12778; purchased Calbiochem #324681
T2 sequence (P08246 30-267): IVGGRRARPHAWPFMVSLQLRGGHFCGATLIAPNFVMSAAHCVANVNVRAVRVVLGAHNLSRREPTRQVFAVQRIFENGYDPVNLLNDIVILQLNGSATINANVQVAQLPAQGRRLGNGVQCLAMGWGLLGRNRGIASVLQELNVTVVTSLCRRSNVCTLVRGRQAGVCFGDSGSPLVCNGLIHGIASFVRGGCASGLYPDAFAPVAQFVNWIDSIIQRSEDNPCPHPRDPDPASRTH

[3] = biological target: T3, bovine pancreatic α-chymotrypsin (BPC) (Bos taurus, UniProt P00766, DEL14-15/DEL147-148); test: Specificity assay, bovine pancreatic α-chymotrypsin
T3 construct: Bovine pancreas α-chymotrypsin #103314 lot 13724423-58; purchased Boehringer Mannheim #103314

CC(NC(=O)[C@H](CC(=O)N(C)C)NC(=O)[C@@H](NC(=O)CC(C)(C)C)C(C)(C)C)C(=O)C(F)(F)F (stereo partly drawn) [Compound 65, N4,N4-dimethyl-N1-(3,3,3-trifluoro-1-methyl-2-oxopropyl)-(2S)-2-[(1S)-2,2-dimethyl-1-(neopentylcarboxamido)propyl]carboxamidobutanediamide]
good specificity profiles: specificity profile against cat-B [1] | specificity profile against HLE [2] | specificity profile against BPC [3]

CC(NC(=O)[C@H](CC(=O)N(C)C)NC(=O)[C@@H](NC(=O)CC(C)(C)C)C(C)(C)C)C(=O)C(F)(F)C(F)(F)F (stereo partly drawn) [Compound 74, N4,N4-dimethyl-N1-(3,3,4,4,4-pentafluoro-1-methyl-2-oxobutyl)-(2S)-2-[(1S)-2,2-dimethyl-1-(neopentylcarboxamido)propyl]carboxamidobutanediamide]
good specificity profiles: specificity profile against cat-B [1] | specificity profile against HLE [2] | specificity profile against BPC [3]

CC(NC(=O)[C@H](CC(=O)N(C)C)NC(=O)[C@@H](NC(=O)CC(C)(C)C)C(C)(C)C)C(=O)C(F)(F)C(=O)NCc1ccccc1 (stereo partly drawn) [Compound 75, N1-[3-(benzylcarbamoyl)-3,3-difluoro-1-methyl-2-oxopropyl]-N4,N4-dimethyl-(2S)-2-[(1S)-2,2-dimethyl-1-(neopentylcarboxamido)propyl]carboxamidobutane diamide]
good specificity profiles: specificity profile against cat-B [1] | specificity profile against HLE [2] | specificity profile against BPC [3]

CC(NC(=O)C(CC(=O)N(C)C)NC(=O)C(NC(=O)CC(C)(C)C)C(C)(C)C)C(=O)C(=O)NCc1ccccc1 (stereo not drawn) [Compound 76, 3-{2-[2-(3,3-dimethyl-butyrylamino)-3,3-dimethyl-butyrylamino]-3-dimethylcarbamoylpropionylamino}-2-oxo-butyric acid benzyl amide]
good specificity profiles: specificity profile against cat-B [1] | specificity profile against HLE [2] | specificity profile against BPC [3]
